Article PMC10994172
No constants are given. Whether binding was seen depends on the method and setting. Some results given as binding are weak or reduced against the parent protein; the word gives no strength.

Amino acid sequences for entries named in this document (tags omitted). A change or cut given only in a name is not applied to a line headed by its entry.
UniProt P19097: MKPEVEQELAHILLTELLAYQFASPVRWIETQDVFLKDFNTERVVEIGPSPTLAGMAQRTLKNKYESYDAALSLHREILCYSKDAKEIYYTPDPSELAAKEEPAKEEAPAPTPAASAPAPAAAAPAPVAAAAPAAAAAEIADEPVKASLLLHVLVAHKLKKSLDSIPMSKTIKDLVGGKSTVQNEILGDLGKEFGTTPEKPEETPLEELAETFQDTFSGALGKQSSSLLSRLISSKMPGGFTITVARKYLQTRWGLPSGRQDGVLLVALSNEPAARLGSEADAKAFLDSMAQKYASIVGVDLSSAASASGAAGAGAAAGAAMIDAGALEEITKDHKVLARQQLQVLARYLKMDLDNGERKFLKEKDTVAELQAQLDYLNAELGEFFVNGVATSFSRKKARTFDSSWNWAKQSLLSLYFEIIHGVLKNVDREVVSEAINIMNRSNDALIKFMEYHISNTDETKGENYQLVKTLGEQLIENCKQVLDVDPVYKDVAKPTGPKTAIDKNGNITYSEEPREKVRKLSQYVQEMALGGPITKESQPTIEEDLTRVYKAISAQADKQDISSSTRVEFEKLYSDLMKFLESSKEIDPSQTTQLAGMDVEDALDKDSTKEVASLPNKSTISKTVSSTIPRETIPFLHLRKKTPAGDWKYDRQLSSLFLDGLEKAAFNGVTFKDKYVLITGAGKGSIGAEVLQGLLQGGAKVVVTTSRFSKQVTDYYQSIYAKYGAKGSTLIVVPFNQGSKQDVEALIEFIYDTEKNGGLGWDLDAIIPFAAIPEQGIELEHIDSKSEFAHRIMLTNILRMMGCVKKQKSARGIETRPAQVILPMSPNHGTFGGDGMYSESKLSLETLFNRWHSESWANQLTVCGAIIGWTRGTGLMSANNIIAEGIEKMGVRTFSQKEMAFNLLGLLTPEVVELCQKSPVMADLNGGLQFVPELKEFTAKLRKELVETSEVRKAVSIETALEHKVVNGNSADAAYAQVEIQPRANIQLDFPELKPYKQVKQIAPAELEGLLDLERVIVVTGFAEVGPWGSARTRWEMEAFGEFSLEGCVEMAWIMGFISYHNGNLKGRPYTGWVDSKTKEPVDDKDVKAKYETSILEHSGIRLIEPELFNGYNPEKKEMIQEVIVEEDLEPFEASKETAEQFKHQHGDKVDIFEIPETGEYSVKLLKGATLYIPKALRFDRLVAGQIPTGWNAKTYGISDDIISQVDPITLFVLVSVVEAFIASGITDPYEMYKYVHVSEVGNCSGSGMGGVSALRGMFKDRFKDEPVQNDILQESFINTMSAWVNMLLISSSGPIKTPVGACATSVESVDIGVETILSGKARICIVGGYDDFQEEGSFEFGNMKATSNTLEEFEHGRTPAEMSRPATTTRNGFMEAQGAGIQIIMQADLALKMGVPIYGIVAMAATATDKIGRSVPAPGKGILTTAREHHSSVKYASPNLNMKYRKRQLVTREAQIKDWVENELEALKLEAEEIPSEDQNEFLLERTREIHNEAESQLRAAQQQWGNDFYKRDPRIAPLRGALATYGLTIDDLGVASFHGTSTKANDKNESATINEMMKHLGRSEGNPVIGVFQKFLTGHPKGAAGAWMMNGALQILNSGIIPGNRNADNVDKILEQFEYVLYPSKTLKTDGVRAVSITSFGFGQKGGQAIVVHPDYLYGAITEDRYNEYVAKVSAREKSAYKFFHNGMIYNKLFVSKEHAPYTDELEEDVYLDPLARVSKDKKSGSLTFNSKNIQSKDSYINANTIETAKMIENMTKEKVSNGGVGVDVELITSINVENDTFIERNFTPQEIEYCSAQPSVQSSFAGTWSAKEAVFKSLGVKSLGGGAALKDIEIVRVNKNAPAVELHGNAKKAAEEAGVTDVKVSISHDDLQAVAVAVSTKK
UniProt P07149: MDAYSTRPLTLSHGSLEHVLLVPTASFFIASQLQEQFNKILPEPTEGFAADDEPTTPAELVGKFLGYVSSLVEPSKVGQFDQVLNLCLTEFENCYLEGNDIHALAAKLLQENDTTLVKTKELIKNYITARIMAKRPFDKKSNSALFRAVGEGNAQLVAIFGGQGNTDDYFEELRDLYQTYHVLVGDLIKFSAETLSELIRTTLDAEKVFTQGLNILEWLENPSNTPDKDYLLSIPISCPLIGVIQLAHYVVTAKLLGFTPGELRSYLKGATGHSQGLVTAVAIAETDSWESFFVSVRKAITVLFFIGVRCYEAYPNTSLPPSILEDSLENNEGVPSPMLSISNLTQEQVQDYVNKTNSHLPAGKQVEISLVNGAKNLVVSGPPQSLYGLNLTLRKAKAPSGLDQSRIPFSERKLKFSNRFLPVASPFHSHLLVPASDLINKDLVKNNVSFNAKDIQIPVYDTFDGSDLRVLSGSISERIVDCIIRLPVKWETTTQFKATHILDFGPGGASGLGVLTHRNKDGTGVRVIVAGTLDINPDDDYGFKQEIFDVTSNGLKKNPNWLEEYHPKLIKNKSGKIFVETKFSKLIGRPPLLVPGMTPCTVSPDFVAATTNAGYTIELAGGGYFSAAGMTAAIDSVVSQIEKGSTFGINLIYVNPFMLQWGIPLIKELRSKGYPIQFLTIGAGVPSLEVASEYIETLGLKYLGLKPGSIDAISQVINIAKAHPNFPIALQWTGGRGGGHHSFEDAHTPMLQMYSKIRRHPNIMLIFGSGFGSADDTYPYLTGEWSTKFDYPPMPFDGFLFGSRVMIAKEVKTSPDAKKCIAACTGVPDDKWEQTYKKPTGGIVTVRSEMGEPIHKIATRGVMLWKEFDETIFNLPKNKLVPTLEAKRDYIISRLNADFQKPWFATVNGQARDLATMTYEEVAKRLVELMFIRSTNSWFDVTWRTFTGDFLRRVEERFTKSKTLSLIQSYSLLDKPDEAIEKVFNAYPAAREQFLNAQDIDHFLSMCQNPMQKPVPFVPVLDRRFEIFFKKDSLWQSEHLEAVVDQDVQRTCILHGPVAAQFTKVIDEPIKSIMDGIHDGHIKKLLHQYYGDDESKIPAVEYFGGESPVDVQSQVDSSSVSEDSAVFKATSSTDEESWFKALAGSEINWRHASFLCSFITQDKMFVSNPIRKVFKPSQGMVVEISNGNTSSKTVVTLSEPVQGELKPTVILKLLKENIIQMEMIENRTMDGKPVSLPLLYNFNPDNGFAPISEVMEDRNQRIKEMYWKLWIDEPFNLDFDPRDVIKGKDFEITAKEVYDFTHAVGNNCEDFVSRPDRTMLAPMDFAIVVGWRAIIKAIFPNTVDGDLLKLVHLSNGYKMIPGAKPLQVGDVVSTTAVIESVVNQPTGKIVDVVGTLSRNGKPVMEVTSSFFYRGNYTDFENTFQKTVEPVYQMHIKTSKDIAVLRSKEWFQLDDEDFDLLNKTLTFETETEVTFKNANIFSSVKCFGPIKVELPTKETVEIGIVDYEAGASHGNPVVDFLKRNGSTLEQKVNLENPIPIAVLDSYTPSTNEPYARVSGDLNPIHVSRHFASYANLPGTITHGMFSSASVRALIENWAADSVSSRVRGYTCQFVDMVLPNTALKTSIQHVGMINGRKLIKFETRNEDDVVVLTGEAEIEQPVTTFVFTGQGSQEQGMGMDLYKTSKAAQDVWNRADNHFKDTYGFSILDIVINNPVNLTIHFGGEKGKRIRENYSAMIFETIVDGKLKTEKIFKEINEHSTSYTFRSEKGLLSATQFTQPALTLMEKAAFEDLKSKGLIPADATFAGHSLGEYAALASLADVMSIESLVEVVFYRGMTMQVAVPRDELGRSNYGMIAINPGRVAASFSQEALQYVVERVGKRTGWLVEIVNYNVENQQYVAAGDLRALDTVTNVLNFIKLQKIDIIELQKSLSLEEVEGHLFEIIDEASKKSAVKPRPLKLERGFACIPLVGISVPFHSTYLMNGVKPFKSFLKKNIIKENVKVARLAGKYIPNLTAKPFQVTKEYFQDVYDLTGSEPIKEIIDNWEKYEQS

Molecular target: Yeast fatty-acid synthase (FAS) (yeast) (UniProt P19097+P07149)
Assay: cryo-EM structure; both purified

Substance: Yeast fatty-acid synthase (FAS) (from UniProt P19097 1-1887; P07149 1-2051) (complex)
- binding: binds
